# Laboratory results from article PMC12758336.
# Sequences of proteins named here, by UniProt entry; tags and fusion partners are left off. A change or cut given only in a name is not applied to a line headed by its entry. A line that says so, or that is headed by a name, gives the form on record, which may keep a tag or linker. Residues count along the entry.
# ATG14 N-terminal region (residues 1–95) S61E S83E (Q6ZNE5, form named): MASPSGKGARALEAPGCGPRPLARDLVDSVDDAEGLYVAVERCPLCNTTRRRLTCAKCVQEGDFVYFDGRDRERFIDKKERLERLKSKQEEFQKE
# ATG14 N-terminal region (residues 1–95) T48E T49E T54E (Q6ZNE5, form named): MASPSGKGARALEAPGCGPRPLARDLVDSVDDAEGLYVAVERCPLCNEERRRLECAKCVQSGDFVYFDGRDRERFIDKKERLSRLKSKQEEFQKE
# BECN1 N-terminal BH3-containing region (residues 1–105) (O88597, residues 1-105): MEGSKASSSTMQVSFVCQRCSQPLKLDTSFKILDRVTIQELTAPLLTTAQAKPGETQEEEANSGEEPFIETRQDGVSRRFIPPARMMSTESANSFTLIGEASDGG
# BECN1 central CC domain (residues 174–266) (O88597, residues 174-266): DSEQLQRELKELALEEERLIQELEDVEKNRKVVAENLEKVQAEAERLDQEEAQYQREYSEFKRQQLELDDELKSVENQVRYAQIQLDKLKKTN
# UniProt Q6PF93: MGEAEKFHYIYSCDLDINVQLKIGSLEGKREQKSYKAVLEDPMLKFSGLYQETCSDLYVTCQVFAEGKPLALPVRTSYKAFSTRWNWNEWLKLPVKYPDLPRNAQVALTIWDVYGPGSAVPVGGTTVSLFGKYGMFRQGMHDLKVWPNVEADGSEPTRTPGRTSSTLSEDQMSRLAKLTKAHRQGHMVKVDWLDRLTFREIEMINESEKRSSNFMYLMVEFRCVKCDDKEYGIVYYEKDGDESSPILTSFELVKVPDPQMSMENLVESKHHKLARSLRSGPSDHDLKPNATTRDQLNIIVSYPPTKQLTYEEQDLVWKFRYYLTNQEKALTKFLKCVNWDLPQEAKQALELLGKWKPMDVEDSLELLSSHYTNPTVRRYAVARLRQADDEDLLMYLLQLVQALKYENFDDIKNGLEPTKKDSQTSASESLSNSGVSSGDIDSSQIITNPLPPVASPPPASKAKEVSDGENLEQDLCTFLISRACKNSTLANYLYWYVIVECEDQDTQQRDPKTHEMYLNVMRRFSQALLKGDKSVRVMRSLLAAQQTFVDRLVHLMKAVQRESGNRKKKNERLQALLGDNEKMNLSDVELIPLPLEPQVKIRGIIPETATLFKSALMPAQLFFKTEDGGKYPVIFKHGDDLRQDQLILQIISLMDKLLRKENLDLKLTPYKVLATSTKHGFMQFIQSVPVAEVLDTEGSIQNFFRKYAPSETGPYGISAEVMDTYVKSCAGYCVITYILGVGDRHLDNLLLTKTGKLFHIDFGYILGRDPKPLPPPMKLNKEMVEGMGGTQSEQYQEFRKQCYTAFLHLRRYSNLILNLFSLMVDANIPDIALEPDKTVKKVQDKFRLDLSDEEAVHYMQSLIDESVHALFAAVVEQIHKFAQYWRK
# No constants are given. Whether binding was seen depends on the method and setting. For some assays here: In cells and extracts the contact can be indirect. Some results given as binding are weak or reduced against the parent protein; the word gives no strength.
# Assays:
# NRBF2-Δ-211–287 = NRBF2-Δ-211–287 (UniProt Q8VCQ3); experiment: ITC; iTC200; ATG14 or BECN1 sample in the syringe (40 μl), NRBF2 in the cell; 50 mM Tris, 150 mM NaCl, pH 8.0; 16 injections; both purified
# [1] = biological target: FLAG-tagged NRBF2 (wild type) (UniProt Q8VCQ3); experiment: co-IP; FLAG- and GFP-tagged NRBF2 constructs co-transfected into HEK293T; anti-FLAG M2 magnetic beads; immunoblot with anti-GFP
# [2] = biological target: FLAG-tagged ATG14 (N2a nrbf2 knockout cells) (UniProt Q6ZNE5); experiment: co-IP; N2a nrbf2 KO cells transfected with FLAG-ATG14 and NRBF2-GFP constructs; Flag M2 beads; a fraction of the beads for western blot
# SUMO-tagged NRBF2 = SUMO-tagged NRBF2 (UniProt Q8VCQ3); experiment: pull-down; SUMO-tagged NRBF2 on Ni-NTA agarose beads; full-length proteins added, 3 h at 4°C; 50 mM Tris/HCl, pH 7.4, 150 mM NaCl; SDS gel with Coomassie Brilliant Blue; both purified
# FLAG-NRBF2 E49A = FLAG-NRBF2 E49A (UniProt Q8VCQ3); experiment: co-IP; FLAG-tagged NRBF2 constructs transfected into HEK293T; anti-FLAG M2 magnetic beads overnight at 4°C; immunoblot with anti-PIK3R4/VPS15
# FLAG-NRBF2 H54A = FLAG-NRBF2 H54A (UniProt Q8VCQ3); experiment: as above
# FLAG-NRBF2 S50A = FLAG-NRBF2 S50A (UniProt Q8VCQ3); experiment: as above
# FLAG-NRBF2 T48A = FLAG-NRBF2 T48A (UniProt Q8VCQ3); experiment: as above
# [3] = biological target: FLAG-tagged NRBF2 (wild type) (UniProt Q8VCQ3); experiment: as above
# [4] = biological target: FLAG-tagged NRBF2 (wild type) (UniProt Q8VCQ3); experiment: co-IP; competitive co-IP: FLAG-tagged bait and GFP-tagged competitor transiently over-expressed in HEK293T; anti-FLAG M2 magnetic beads; immunoblot for endogenous PIK3R4/VPS15 and PIK3C3/VPS34; Figure 6C also after 100 nM rapamycin (2 h) or EBSS medium (2 h)
Substance,binding (NRBF2-Δ-211–287),further results
ATG14 BARA-like domain construct (residues 219–289) (from UniProt Q6ZNE5 219-289) (domain or fragment),no binding,
ATG14 BARA-like domain construct (residues 331–400) (from UniProt Q6ZNE5 331-400) (domain or fragment),no binding,
ATG14 C-terminal BARKOR/ATG14 autophagosome targeting sequence (BATS; residues 390–485) (from UniProt Q6ZNE5 390-485) (domain or fragment),no binding,
ATG14 CC fragment (residues 88–179) (from UniProt Q6ZNE5 88-179) (domain or fragment),no binding,
ATG14 CC fragment (residues 144–195) (from UniProt Q6ZNE5 144-195) (domain or fragment),no binding,
ATG14 N-terminal region (residues 1–95) S61E (from UniProt Q6ZNE5 1-95) (domain or fragment),no binding,
ATG14 N-terminal region (residues 1–95) S61E S83E (from UniProt Q6ZNE5 1-95) (domain or fragment),no binding,
ATG14 N-terminal region (residues 1–95) S83E (from UniProt Q6ZNE5 1-95) (domain or fragment),no binding,
ATG14 N-terminal region (residues 1–95) T48E T49E T54E (from UniProt Q6ZNE5 1-95) (domain or fragment),no binding,
ATG14-1–95 (from UniProt Q6ZNE5 1-95) (domain or fragment),no binding,
BECN1 C-terminal BARA domain (residues 243–448) (from UniProt O88597 243-448) (domain or fragment),no binding,
BECN1 N-terminal BH3-containing region (residues 1–105) (from UniProt O88597 1-105) (domain or fragment),no binding,
BECN1 central CC domain (residues 174–266) (from UniProt O88597 174-266) (domain or fragment),no binding,
FLAG-tagged NRBF2 (wild type) (from UniProt Q8VCQ3 1-287),,binding [1]: binds
PIK3C3/VPS34 (N2a cells) (from UniProt Q6PF93 1-887) (enzyme),,binding [2]: binds
PIK3C3/VPS34-PIK3R4/VPS15 complex (from UniProt Q8NEB9 1-887; Q99570 1-1358),,binding (SUMO-tagged NRBF2): binds
endogenous PIK3R4/VPS15 (from UniProt Q99570 1-1358),,binding (FLAG-NRBF2 E49A): binds; binding (FLAG-NRBF2 H54A): binds; binding (FLAG-NRBF2 S50A): binds; binding (FLAG-NRBF2 T48A): binds; binding [3]: binds; binding [4]: binds
full-length ATG14 (FLAG-Strep-ATG14) (from UniProt Q6ZNE5 1-492),,binding (SUMO-tagged NRBF2): no binding
